Measurements from the supplement of paper PMC8728848.
This is one part of the list.

Experiments:
Assay in all cases: glycan array binding signal (z-score within array); higher = stronger binding
Conditions in all cases: glycan notation: IUPAC condensed, linker removed; mutation: R276L
Glc(b1-4)Glc = target: Glc(b1-4)Glc
How it was run: (§1)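 From the Consortium for Functional Glycomics database, 3228 arrays were curated, keeping only those whose protein sequence was available. Binding is given as a within-array Z-score averaged across arrays sharing a protein sequence and across linkers. Negative Z-scores can be read as non-binding.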

Glc(b1-6)Glc = target: Glc(b1-6)Glc
How it was run: as §1

GlcA(b1-3)Gal = target: GlcA(b1-3)Gal
How it was run: as §1

GlcA(b1-3)GlcNAc = target: GlcA(b1-3)GlcNAc
How it was run: as §1

GlcA(b1-6)Gal = target: GlcA(b1-6)Gal
How it was run: as §1

[1] = target: GlcA3S(b1-3)Gal(b1-4)GlcNAc(b1-2)Man
How it was run: as §1

[2] = target: GlcA3S(b1-3)Gal(b1-4)GlcNAc(b1-3)Gal(b1-4)Glc
How it was run: as §1

[3] = target: GlcNAc(a1-3)Gal(b1-4)GlcNAc
How it was run: as §1

[4] = target: GlcNAc(a1-4)Gal(b1-3)GlcNAc
How it was run: as §1

[5] = target: GlcNAc(a1-4)Gal(b1-4)GalNAc
How it was run: as §1

[6] = target: GlcNAc(a1-4)Gal(b1-4)GlcNAc
How it was run: as §1

[7] = target: GlcNAc(a1-4)Gal(b1-4)GlcNAc(b1-3)Gal(b1-4)Glc
How it was run: as §1

[8] = target: GlcNAc(a1-4)Gal(b1-4)GlcNAc(b1-3)Gal(b1-4)GlcNAc
How it was run: as §1

[9] = target: GlcNAc(a1-4)Gal(b1-4)GlcNAc(b1-3)Gal(b1-4)GlcNAc(b1-3)Gal(b1-4)GlcNAc
How it was run: as §1

[10] = target: GlcNAc(a1-4)Gal(b1-4)GlcNAc(b1-3)Gal(b1-4)[Fuc(a1-3)]GlcNAc(b1-3)Gal(b1-4)[Fuc(a1-3)]GlcNAc
How it was run: as §1

[11] = target: GlcNAc(a1-6)Gal(b1-4)GlcNAc
How it was run: as §1

[12] = target: GlcNAc(b1-2)Gal(b1-3)GalNAc
How it was run: as §1

[13] = target: GlcNAc(b1-2)Man(a1-3)[GlcNAc(b1-2)Man(a1-6)]Man(b1-4)GlcNAc(b1-4)GlcNAc
How it was run: as §1

[14] = target: GlcNAc(b1-2)Man(a1-3)[GlcNAc(b1-2)Man(a1-6)]Man(b1-4)GlcNAc(b1-4)[Fuc(a1-6)]GlcNAc
How it was run: as §1

[15] = target: GlcNAc(b1-2)Man(a1-3)[GlcNAc(b1-4)][GlcNAc(b1-2)Man(a1-6)]Man(b1-4)GlcNAc(b1-4)GlcNAc
How it was run: as §1

[16] = target: GlcNAc(b1-2)Man(a1-3)[GlcNAc(b1-4)][GlcNAc(b1-2)Man(a1-6)]Man(b1-4)GlcNAc(b1-4)[Fuc(a1-6)]GlcNAc
How it was run: as §1

[17] = target: GlcNAc(b1-2)[GlcNAc(b1-4)]Man(a1-3)[GlcNAc(b1-2)Man(a1-6)]Man(b1-4)GlcNAc(b1-4)GlcNAc
How it was run: as §1

[18] = target: GlcNAc(b1-2)[GlcNAc(b1-4)]Man(a1-3)[GlcNAc(b1-4)][GlcNAc(b1-2)Man(a1-6)]Man(b1-4)GlcNAc(b1-4)GlcNAc
How it was run: as §1

[19] = target: GlcNAc(b1-2)[GlcNAc(b1-4)]Man(a1-3)[GlcNAc(b1-4)][GlcNAc(b1-2)[GlcNAc(b1-6)]Man(a1-6)]Man(b1-4)GlcNAc(b1-4)GlcNAc
How it was run: as §1

[20] = target: GlcNAc(b1-2)[GlcNAc(b1-4)]Man(a1-3)[GlcNAc(b1-4)][GlcNAc(b1-2)[GlcNAc(b1-6)]Man(a1-6)]Man(b1-4)GlcNAc(b1-4)[Fuc(a1-6)]GlcNAc
How it was run: as §1

[21] = target: GlcNAc(b1-2)[GlcNAc(b1-6)]Man(a1-6)[GlcNAc(b1-2)Man(a1-3)]Man(b1-4)GlcNAc(b1-4)GlcNAc
How it was run: as §1

[22] = target: GlcNAc(b1-2)[GlcNAc(b1-6)]Man(a1-6)[GlcNAc(b1-2)Man(a1-3)]Man(b1-4)GlcNAc(b1-4)[Fuc(a1-6)]GlcNAc
How it was run: as §1

[23] = target: GlcNAc(b1-2)[GlcNAc(b1-6)]Man(a1-6)[GlcNAc(b1-4)][GlcNAc(b1-2)Man(a1-3)]Man(b1-4)GlcNAc(b1-4)GlcNAc
How it was run: as §1

GlcNAc(b1-3)Fuc = target: GlcNAc(b1-3)Fuc
How it was run: as §1

GlcNAc(b1-3)Gal = target: GlcNAc(b1-3)Gal
How it was run: as §1

[24] = target: GlcNAc(b1-3)Gal(b1-3)GalNAc
How it was run: as §1

GlcNAc(b1-3)Gal(b1-4)Glc = target: GlcNAc(b1-3)Gal(b1-4)Glc
How it was run: as §1

[25] = target: GlcNAc(b1-3)Gal(b1-4)GlcNAc
How it was run: as §1

[26] = target: GlcNAc(b1-3)Gal(b1-4)GlcNAc(b1-2)Man(a1-3)[GlcNAc(b1-3)Gal(b1-4)GlcNAc(b1-2)Man(a1-6)]Man(b1-4)GlcNAc(b1-4)GlcNAc
How it was run: as §1

[27] = target: GlcNAc(b1-3)Gal(b1-4)GlcNAc(b1-2)Man(a1-3)[GlcNAc(b1-3)Gal(b1-4)GlcNAc(b1-2)Man(a1-6)]Man(b1-4)GlcNAc(b1-4)[Fuc(a1-6)]GlcNAc
How it was run: as §1

[28] = target: GlcNAc(b1-3)Gal(b1-4)GlcNAc(b1-2)[GlcNAc(b1-3)Gal(b1-4)GlcNAc(b1-6)]Man(a1-6)[GlcNAc(b1-3)Gal(b1-4)GlcNAc(b1-2)Man(a1-3)]Man(b1-4)GlcNAc(b1-4)GlcNAc
How it was run: as §1

[29] = target: GlcNAc(b1-3)Gal(b1-4)GlcNAc(b1-3)Gal(b1-4)GlcNAc
How it was run: as §1

[30] = target: GlcNAc(b1-3)Gal(b1-4)GlcNAc(b1-3)Gal(b1-4)GlcNAc(b1-2)Man(a1-3)[GlcNAc(b1-3)Gal(b1-4)GlcNAc(b1-3)Gal(b1-4)GlcNAc(b1-2)Man(a1-6)]Man(b1-4)GlcNAc(b1-4)GlcNAc
How it was run: as §1

[31] = target: GlcNAc(b1-3)Gal(b1-4)GlcNAc(b1-3)Gal(b1-4)GlcNAc(b1-2)Man(a1-3)[GlcNAc(b1-3)Gal(b1-4)GlcNAc(b1-3)Gal(b1-4)GlcNAc(b1-2)Man(a1-6)]Man(b1-4)GlcNAc(b1-4)[Fuc(a1-6)]GlcNAc
How it was run: as §1

[32] = target: GlcNAc(b1-3)Gal(b1-4)GlcNAc(b1-3)Gal(b1-4)GlcNAc(b1-2)[GlcNAc(b1-3)Gal(b1-4)GlcNAc(b1-3)Gal(b1-4)GlcNAc(b1-6)]Man(a1-6)[GlcNAc(b1-3)Gal(b1-4)GlcNAc(b1-3)Gal(b1-4)GlcNAc(b1-2)Man(a1-3)]Man(b1-4)GlcNAc(b1-4)[Fuc(a1-6)]GlcNAc
How it was run: as §1

[33] = target: GlcNAc(b1-3)Gal(b1-4)GlcNAc(b1-3)Gal(b1-4)GlcNAc(b1-3)Gal(b1-4)GlcNAc(b1-2)Man(a1-3)[GlcNAc(b1-3)Gal(b1-4)GlcNAc(b1-3)Gal(b1-4)GlcNAc(b1-3)Gal(b1-4)GlcNAc(b1-2)Man(a1-6)]Man(b1-4)GlcNAc(b1-4)GlcNAc
How it was run: as §1

[34] = target: GlcNAc(b1-3)Gal(b1-4)GlcNAc(b1-3)Gal(b1-4)GlcNAc(b1-3)Gal(b1-4)GlcNAc(b1-2)Man(a1-3)[GlcNAc(b1-3)Gal(b1-4)GlcNAc(b1-3)Gal(b1-4)GlcNAc(b1-3)Gal(b1-4)GlcNAc(b1-2)Man(a1-6)]Man(b1-4)GlcNAc(b1-4)[Fuc(a1-6)]GlcNAc
How it was run: as §1

[35] = target: GlcNAc(b1-3)Gal(b1-4)GlcNAc(b1-3)Gal(b1-4)GlcNAc(b1-3)Gal(b1-4)GlcNAc(b1-2)[GlcNAc(b1-3)Gal(b1-4)GlcNAc(b1-3)Gal(b1-4)GlcNAc(b1-3)Gal(b1-4)GlcNAc(b1-6)]Man(a1-6)[GlcNAc(b1-3)Gal(b1-4)GlcNAc(b1-3)Gal(b1-4)GlcNAc(b1-3)Gal(b1-4)GlcNAc(b1-2)Man(a1-3)]Man(b1-4)GlcNAc(b1-4)[Fuc(a1-6)]GlcNAc
How it was run: as §1

[36] = target: GlcNAc(b1-3)Gal(b1-4)GlcNAc(b1-3)Gal(b1-4)GlcNAc(b1-3)Gal(b1-4)GlcNAc(b1-3)Gal(b1-4)GlcNAc(b1-2)Man(a1-3)[GlcNAc(b1-3)Gal(b1-4)GlcNAc(b1-3)Gal(b1-4)GlcNAc(b1-3)Gal(b1-4)GlcNAc(b1-3)Gal(b1-4)GlcNAc(b1-2)Man(a1-6)]Man(b1-4)GlcNAc(b1-4)GlcNAc
How it was run: as §1

[37] = target: GlcNAc(b1-3)Gal(b1-4)GlcNAc(b1-3)Gal(b1-4)GlcNAc(b1-3)Gal(b1-4)GlcNAc(b1-3)Gal(b1-4)GlcNAc(b1-2)Man(a1-3)[GlcNAc(b1-3)Gal(b1-4)GlcNAc(b1-3)Gal(b1-4)GlcNAc(b1-3)Gal(b1-4)GlcNAc(b1-3)Gal(b1-4)GlcNAc(b1-2)Man(a1-6)]Man(b1-4)GlcNAc(b1-4)[Fuc(a1-6)]GlcNAc
How it was run: as §1

B1: SUN4P (Saccharomyces cerevisiae), P53616 (protein)
chain: MGSSHHHHHHSSGLVPRGSHNGSIYGDLADFSGPYEKFEDGTIPCGQFPSGQGVIPISWLDEGGWSGVENTDTSTGGSCKEGSYCSYACQPGMSKTQWPSDQPSDGRSIGGLLCKDGYLYRSNTDTDYLCEWGVDAAYVVSELSNDVAICLTDYPGTENMVIPTYVQAGDSLPLTVVDQDTYYTWQGLKTSAQYYVNNAGISVEDACVWGSSSSGVGNWAPLNFGAGSSDGVAYLSLIPNPNNGNALNFNVKIVAADDSSTVNGECIYENGSFSGGSDGCTVSVTAGKAKFVLYN
Q: What does the source list for B1?
A: glycan array binding signal (z-score) (Glc(b1-4)Glc): -0.537; glycan array binding signal (z-score) (Glc(b1-6)Glc): -0.045; glycan array binding signal (z-score) (GlcA(b1-3)Gal): 0.533; glycan array binding signal (z-score) (GlcA(b1-3)GlcNAc): -1.12; glycan array binding signal (z-score) (GlcA(b1-6)Gal): -1.14; glycan array binding signal (z-score) [1]: -0.464; glycan array binding signal (z-score) [2]: -0.059; glycan array binding signal (z-score) [3]: -0.683; glycan array binding signal (z-score) [4]: 1.83; glycan array binding signal (z-score) [5]: -0.143; glycan array binding signal (z-score) [6]: -0.209; glycan array binding signal (z-score) [7]: -1.22; glycan array binding signal (z-score) [8]: -0.664; glycan array binding signal (z-score) [9]: 0.259; glycan array binding signal (z-score) [10]: 1.22; glycan array binding signal (z-score) [11]: 0.826; glycan array binding signal (z-score) [12]: -0.466; glycan array binding signal (z-score) [13]: -0.48; glycan array binding signal (z-score) [14]: 1.21; glycan array binding signal (z-score) [15]: 0.523; glycan array binding signal (z-score) [16]: 0.219; glycan array binding signal (z-score) [17]: -1.13; glycan array binding signal (z-score) [18]: -0.742; glycan array binding signal (z-score) [19]: 0.09; glycan array binding signal (z-score) [20]: -1.07; glycan array binding signal (z-score) [21]: -0.462; glycan array binding signal (z-score) [22]: -0.52; glycan array binding signal (z-score) [23]: 0.007; glycan array binding signal (z-score) (GlcNAc(b1-3)Fuc): -0.739; glycan array binding signal (z-score) (GlcNAc(b1-3)Gal): -0.02; glycan array binding signal (z-score) [24]: 0.424; glycan array binding signal (z-score) (GlcNAc(b1-3)Gal(b1-4)Glc): 0.849; glycan array binding signal (z-score) [25]: -0.504; glycan array binding signal (z-score) [26]: 1.23; glycan array binding signal (z-score) [27]: 0.672; glycan array binding signal (z-score) [28]: -0.301; glycan array binding signal (z-score) [29]: -0.557; glycan array binding signal (z-score) [30]: -0.112; glycan array binding signal (z-score) [31]: 0.333; glycan array binding signal (z-score) [32]: 1.06; glycan array binding signal (z-score) [33]: -0.003; glycan array binding signal (z-score) [34]: 0.347; glycan array binding signal (z-score) [35]: 0.39; glycan array binding signal (z-score) [36]: -2.18; glycan array binding signal (z-score) [37]: 0.711
